This test deals with T1, Flag-tagged NONO (UniProt Q99K48).
T1 sequence: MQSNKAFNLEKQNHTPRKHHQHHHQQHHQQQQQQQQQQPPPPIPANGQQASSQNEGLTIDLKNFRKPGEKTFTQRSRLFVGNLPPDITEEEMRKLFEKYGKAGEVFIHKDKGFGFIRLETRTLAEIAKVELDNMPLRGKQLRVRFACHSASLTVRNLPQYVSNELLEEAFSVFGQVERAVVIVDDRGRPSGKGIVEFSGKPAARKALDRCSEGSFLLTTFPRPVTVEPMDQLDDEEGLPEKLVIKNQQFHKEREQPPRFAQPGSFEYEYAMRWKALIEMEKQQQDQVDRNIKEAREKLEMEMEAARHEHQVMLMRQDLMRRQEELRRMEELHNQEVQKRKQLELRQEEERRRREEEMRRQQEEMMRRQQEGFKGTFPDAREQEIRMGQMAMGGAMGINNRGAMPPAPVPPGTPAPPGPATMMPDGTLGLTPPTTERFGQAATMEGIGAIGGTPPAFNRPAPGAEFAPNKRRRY
As to the kind of experiment: pull-down; 5 ug Flag-NONO incubated with 5 ug GST or 5 ug GST-TET1CD in 200 ul of 50 mM Tris-HCl pH 8.0, 150 mM NaCl, 0.1% Triton X-100 for 3 h at 4 C; Flag beads for 1 h at 4 C; Western blot and Coomassie staining; both purified.

Results are given in words; binding and its absence hold for the method and conditions named. A result given as binding can be weak or reduced; the word gives no strength. Sequences can lack the tags named with a protein.

Consider “GST-tagged TET1 catalytic domain (CD) (domain or fragment)”, for which the binding result is reported as “binds”.
